This passage reports binding results from patent EP4713368A1.

Chains of the proteins cited; added tags and fusions are not shown. Lines headed by an entry give the natural chain unless they say otherwise; changes in a name come on top.
UniProt P10747: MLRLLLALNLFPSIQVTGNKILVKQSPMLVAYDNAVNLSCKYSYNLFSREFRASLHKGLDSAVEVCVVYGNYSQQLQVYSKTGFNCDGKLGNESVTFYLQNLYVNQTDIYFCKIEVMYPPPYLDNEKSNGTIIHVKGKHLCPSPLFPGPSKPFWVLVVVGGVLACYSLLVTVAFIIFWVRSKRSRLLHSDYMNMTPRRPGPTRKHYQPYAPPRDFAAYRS

Assay [1] concerns the target human CD28 (human) (UniProt P10747). As to the kind of experiment: affinity maturation of CD28-binding antibodies (Example 10: Discovery of Additional Antibodies that Bind to CD28).
For assay [2] the target is unchanged. As to the kind of experiment: selection from yeast-presented synthetic human antibody libraries.

No constants are given. Whether binding was seen depends on the method and setting. Some entries that bind do so weakly or less than the wild type.

B1: Ab No. 83a (antibody, V domains shown)
VH: EVQLLESGGGLVQPGGSLRLSCAASGFTFSDTVMNWYRQAPGKEGELVSAISRSGDNTYYADSVKGRFTISRDNSKNTLYLQMNSLRAEDTAVYYCNARRYQSSGGDVWGQGTQVTVSS
As to B1, in the assay with human CD28 (human) [1], the binding entry is reported as “binds”.

B2: Ab No. 83b (antibody, V domains shown)
VH: EVQLLESGGGLVQPGGSLRLSCAASGFTFTASAMTWYRQAPGKERELVSAISGSGSDTYYADSVKGRFTISRDNSKNTLYLQMNSLRAEDTAVYYCNARRYQSSGGDVWGQGTQVTVSS
Consider B2, for which the binding result with human CD28 (human) [1] is on record as “binds”.

B3: Ab No. 83e (antibody, V domains shown)
VH: EVQLLESGGGLVQPGGSLRLSCAASGFTFSSNTMTWYRQAPGKERELVSAISKSGDDTYYADSVKGRFTISRDNSKNTLYLQMNSLRAEDTAVYYCNARRYQSSGGDVWGQGTQVTVSS
As for B3, the binding entry with human CD28 (human) [1] is on record as “binds”.

B4: Ab No. 83c (antibody, V domains shown)
VH: EVQLLESGGGLVQPGGSLRLSCAASGFTFSSNVMTWYRQAPGKERELVSAISGSGSDTYYADSVKGRFTISRDNSKNTLYLQMNSLRAEDTAVYYCNARRYQSSGGDVWGQGTQVTVSS
Turning to B4, in the assay with human CD28 (human) [1], the binding result was “binds”.

B5: Ab No. 83d (antibody, V domains shown)
VH: EVQLLESGGGLVQPGGSLRLSCAASGFTFSDHSMNWYRQAPGKERELVSAISGGGEGTYYADSVKGRFTISRDNSKNTLYLQMNSLRAEDTAVYYCNARRYQSSGGDVWGQGTQVTVSS
As to B5, in the assay with human CD28 (human) [1], the binding result is given as “binds”.

B6: Ab No. 34 (antibody, V domains shown)
VH: QLQLQESGPGLVKPSETLSLTCTVSGGSISSSDYYWGWIRQPPGKGLEWIGSIYYSGSTYYNPSLKSRVTISVDTSKNQFSLKLSSVTAADTAVYYCARISDRSGTAQDYWGQGTLVTVSS
VL: DIQMTQSPSSVSASVGDRVTITCRASQGISSWLAWYQQKPGKAPKLLIYAASSLQSGVPSRFSGSGSGTDFTLTISSLQPEDFATYYCQQAFSHPTFGGGTKVEIK
For the molecule B6, the binding entry with human CD28 (human) [2] is reported as “binds”.

B7: Ab No. 51 (antibody, V domains shown)
VH: QVQLQESGPGLVKPSETLSLTCAVSGYSISSGYYWGWIRQPPGKGLEWIGSIYHSGSTYYNPSLKSRVTISVDTSKNQFSLKLSSVTAADTAVYYCARDRGYAAGPGRGTFDYWGQGTLVTVSS
VL: NFVLTQPHSVSESPGKTVTISCTRSSGSIASNYVQWYQQRPGSSPTTVIYEDNQRPSGVPDRFSGSIDSSSNSASLTISGLKTEDEADYYCQSYDSSVHWVFGGGTKLTVL
In the case of B7, the binding result with human CD28 (human) [2] is on record as “binds”.

B8: Ab No. 52 (antibody, V domains shown)
VH: QVQLQESGPGLVKPSETLSLTCAVSGYSISSGYYWGWIRQPPGKGLEWIGSIYHSGSTYYNPSLKSRVTISVDTSKNQFSLKLSSVTAADTAVYYCARDRGYAAGPGRGTFDYWGQGTLVTVSS
VL: NFVLTQPHSVSESPGKTVTISCTRSSGSIASNYVQWYQQRPGSSPTTVIYEDNQRPSGVPDRFSGSIDSSSNSASLTISGLKTEDEADYYCQSYDVDNHWIFGGGTKLTVL
On to B8, for which the binding entry in the assay with human CD28 (human) [2] is “binds”.

B9: Ab No. 37 (antibody, V domains shown)
VH: QLQLQESGPGLVKPPETLSLTCTVSGGSISSSDYYWGWIRQPPGKGLEWIGSIYYSGSTYYNPSLKSRVTISVDTSKNQFSLKLSSVTAADTAVYYCTRVASDYAVEQDWGQGTLVTVSS
VL: DIQMTQSPSSLSASVGDRVTITCRASQSISSYLNWYQQKPGKAPKLLISAASSLQSGVPSRFSGSGSGTDFTLTISSLQPEDFATYYCQQSSHSPITFGGGTKVEIK
For the molecule B9, the binding entry in the assay with human CD28 (human) [2] was “binds”.

B10: Ab No. 38 (antibody, V domains shown)
VH: QVQLQESGPGLVKPSGTLSLTCAVSGGSISSSNWWSWVRQPPGKGLEWIGEIYHSGSTNYNPSLKSRVTISVDKSKNQFSLKLSSVTAADTAVYYCARAYYGYSGTPYNWFDSWGQGTLVTVSS
VL: DIQMTQSPSSLSASVGDRVTITCRASQSISSYLNWYQQKPGKAPKLLIYAASSLQSGVPSRFSGSGSGTDFTLTISSLQPEDFATYYCQQTVSDPITFGGGTKVEIK
On to B10, for which the binding entry with human CD28 (human) [2] is listed as “binds”.

B11: Ab No. 49 (antibody, V domains shown)
VH: EVQLLESGGGLVQPGGSLRLSCAASGFTFSSYAMSWVRQAPGKGLEWVSAISGSGGSTYYADSVKGRFTISRDNSKNTLYLQMNSLRAEDTAVYYCVRAPGIAAAEYSFDFWGQGTLVTVSS
VL: QSALTQPRSVSGSPGQSVTISCTGTSSDVGGYNYVSWYQQHPGKAPKLLIYDVSKRPSGVPDRFSGSKSGNTASLTISGLQAEDEADYYCSSYAEGVQVGFGGGTKLTVL
As for B11, the binding entry in the assay with human CD28 (human) [2] was “binds”.

B12: Ab No. 54 (antibody, V domains shown)
VH: QLQLQESGPGLVKPSETLSLTCTVSGGSISSSSYYWGWIRQPPGKGLEWIGSIYYSGSTYYNPSLKSRVTISVDTSKNQFSLKLSSVTAADTAVYYCTSQGAYLVDYWGQGTLVTVSS
VL: QSALTQPRSVSGSPGQSVTISCTGTSSDVGGYNYVSWYQQHPGKAPKLLIYDVSKRPSGVPDRFSGSKSGNTASLTISGLQAEDEADYYCGSYAGFTSVVFGGGTKLTVL
B12: in the assay with human CD28 (human) [2], the binding entry is “binds”.

B13: Ab No. 50 (antibody, V domains shown)
VH: EVQLLESGGGLVQPGGSLRLSCAASGFTFSSYAMSWVRQAPGKGLEWVSAISGSGGSTYYADSVKGRFTISRDNSKNTLYLQMNSLRAEDTAVYYCVRAPGLRFLEYSFDLWGRGTLVTVSS
VL: QSALTQPRSVSGSPGQSVTISCTGTSSDVGGYNYVSWYQQHPGKAPKLLIYDVSKRPSGVPDRFSGSKSGNTASLTISGLQAEDEADYYCSSWAGSYRVAFGGGTKLTVL
For the molecule B13, the binding entry in the assay with human CD28 (human) [2] was “binds”.

B14: Ab No. 31 (antibody, V domains shown)
VH: QLQLQESGPGLVKPSETLSLTCTVSGGSISSSDYYWGWIRQPPGKGLEWIGSIYYSGSTYYNPSLKSRVTISVDTSKNQFSLKLSSVTAADTAVYYCAKVTAIASAFSHWGQGTLVTVSS
VL: EIVMTQSPATLSVSPGERATLSCRASQSVGSNLAWYQQKPGQAPRLLIYGASTRATGIPARFSGSGSGTEFTLTISSLQSEDFAVYYCQQVNYHPITFGGGTKVEIK
For B14, the binding result with human CD28 (human) [2] is “binds”.

B15: Ab No. 35 (antibody, V domains shown)
VH: QLQLQESGPGLVKPSETLSLTCTVSGGSISSSDYYWGWIRQPPGKGLEWIGSIYYSGSTYYNPSLKSRVTISVDTSKNQFSLKLSSVAAADTAVYYCARVEGDSGSQVYWGQGTLVTVSS
VL: EIVMTQSPATLSVSPGERATLSCRASQSVSSNLAWYQQKPGQAPRLLIYGASTRATGIPARFSGSGSGTEFTLTISSLQSEDFAVYYCQQANYFPPTFGGGTKVEIK
On to B15, for which the binding result with human CD28 (human) [2] is listed as “binds”.

B16: Ab No. 39 (antibody, V domains shown)
VH: QVQLQESGPGLVKPSETLSLTCTVSGGSFSGYYWSWIRQPPGKGLEWIGEIDHSGSTNYNPSLKSRVTISVDTSKNQFSLKLSSVTAADTAVYYCARDLGRGFSYYPWGQGTLVTVSS
VL: EIVMTQSPATLSVSPGERATLSCRASQSVSSNLAWYQQKPGQAPRLLIYGASTRATGIPARFSGSGSGTEFTLTISSLQSEDFAVYYCQQFNAFPITFGGGTKVEIK
Turning to B16, the binding entry in the assay with human CD28 (human) [2] is “binds”.

B17: Ab No. 32 (antibody, V domains shown)
VH: QVQLQESGPGLVKPSQTLSLTCTVSGGSISSSDYYWGWIRQPPGKGLEWIGSIYYSGSTYYNPSLKSRVTISVDTSKNQFSLKLSSVTAADTAVYYCARAYGSSGAFDHWGQGTLVTVSS
VL: DIQMTQSPSSVSASVGDRVTITCRASQGISSWLAWYQQKPGKAPKLLIYAASSLQSGVPSRFSGSGSGTDFTLTISSLQPEDFATYYCQQANSHPPTFGGGTKVEIK
In the case of B17, the binding result with human CD28 (human) [2] is recorded as “binds”.

B18: Ab No. 36 (antibody, V domains shown)
VH: QLQLQESGPGLVKPSETLSLTCTVSGGSISSSDYYWGWIRQPPGKGLEWIGSIYYSGSTYYNPSLKSRVTISVDTSKNQFSLKLSSVTAADTAVYYCARVWGESGVTADWGQGTLVTVSS
VL: EIVMTQSPATLSVSPGERATLSCRASQSVSSNLAWYQQKPGQAPRLLIYGASTRATGIPARFSGSGSGTEFTLTISSLQSEDFAVYYCQQANFFPPTFGGGTKVEIK
Turning to B18, in the assay with human CD28 (human) [2], the binding entry is “binds”.

B19: Ab No. 33 (antibody, V domains shown)
VH: QVQLQESGPGLVKPSETLSLTCTVSGGSISSSDYYWGWIRQPPGKGLEWIGSIYYSGSTYYNPSLKSRVTISVDTSKNQFSLKLSSVTAADTAVYYCARIEAAAASATHWGQGTLVTVSS
VL: DIQMTQSPSSVSASVGDRVTITCRASQGISSWLAWYQQKPGKAPKLLIYAASSLQSGVPSRFSGSGSGTDFTLTISSLQPEDFATYYCQQANYHPPTFGGGTKVEIK
On to B19, for which, in the assay with human CD28 (human) [2], the binding result is “binds”.

B20: Ab No. 46a (antibody, V domains shown)
VH: QVQLVQSGAEVKKPGSSVKVSCKASGGTFSATAISWVRQAPGQGLEWMGGIIPISGTAVYAQKFQGRVTITADESTSTAYMELSSLRSEDTAVYYCARHSSSWGTAITSDYWGQGTLVTVSS
VL: QSVLTQPPSVSGAPGQRVTISCTGSGSNIGAGYDVHWYQQLPGTAPKLLIYGNTNRPSGVPDRFSGSKSGTSASLAITGLQAEDEADYYCQSNDNSLRGILFGGGTKLTVL
With B20, in the assay with human CD28 (human) [1], the binding result is reported as “binds”.

B21: Ab No. 46c (antibody, V domains shown)
VH: QVQLVQSGAEVKKPGSSVKVSCKASGGTFADYAISWVRQAPGQGLEWMGGIIPISGTANYAQKFQGRVTITADESTSTAYMELSSLRSEDTAVYYCARHSSSWGTAITSDYWGQGTLVTVSS
VL: QSVLTQPPSVSGAPGQRVTISCTGSGSNIGAGYDVHWYQQLPGTAPKLLIYGNTNRPSGVPDRFSGSKSGTSASLAITGLQAEDEADYYCQSNDNSLRGILFGGGTKLTVL
Regarding B21, the binding result with human CD28 (human) [1] was “binds”.

B22: Ab No. 46b (antibody, V domains shown)
VH: QVQLVQSGAEVKKPGSSVKVSCKASGGTFNTYAISWVRQAPGQGLEWMGGIIPISGTAVYAQKFQGRVTITADESTSTAYMELSSLRSEDTAVYYCARHSSSWGTAITSDYWGQGTLVTVSS
VL: QSVLTQPPSVSGAPGQRVTISCTGSGSNIGAGYDVHWYQQLPGTAPKLLIYGNTNRPSGVPDRFSGSKSGTSASLAITGLQAEDEADYYCQSNDNSLRGILFGGGTKLTVL
Regarding B22, in the assay with human CD28 (human) [1], the binding result is “binds”.

B23: Ab No. 53 (antibody, V domains shown)
VH: QVQLQESGPGLVKPSETLSLTCAVSGYSISSGYYWGWIRQPPGKGLEWIGSIYHSGSTYYNPSLKSRVTISVDTSKNQFSLKLSSVTAADTAVYYCTRVEGYFWSGLHWGQGTLVTVSS
VL: QSALTQPASVSGSPGQSITISCTGTGSDVGGYNYVSWYQQHPGKAPKLIIYEVSNRPSGVSNRFSGSKSGNTASLTISGLQAEDEADYYCSSYTKDNLEFGGGTKLTVL
In the case of B23, the binding result with human CD28 (human) [2] is “binds”.
